Values quoted from earlier work in patent US20240226035A1, “Precision Medicine Approach to Treating Parkinson's Disease with a Monoamine Oxidase Inhibitor, an Antioxidant, or Both” (UNIVERSITY OF NORTH TEXAS HEALTH SCIENCE CENTER AT FORT …, priority 2021, published 2024).
At least one compound was matched to its structure with a doubt left.

System: neuroinflammatory response
Settings: humanized CD34+ mice

C=CC[C@@H]1/C=C(\C)C[C@H](C)C[C@H](OC)[C@H]2O[C@@](O)(C(=O)C(=O)N3CCCC[C@H]3C(=O)O[C@H](/C(C)=C/[C@@H]3CC[C@@H](O)[C@H](OC)C3)[C@H](C)[C@@H](O)CC1=O)[C@H](C)C[C@@H]2OC [FK506]
neuroinflammatory response associated with MPTP-induced PD-like symptoms: attenuated
